In US20060121449A1, “Method for selection of compounds which inhibit clonal cell growth and use thereof” (priority 2002, published 2006):
Some of these results come from one statement about several compounds together. For at least one compound, name, drawing or mass did not settle the structure.

Test system: polyoma virus transformed BHK21/c13 cells, line S100T1
Test: Collocation inhibition test: clonal growth in sparsely and densely seeded areas of a cell density gradient of S100T1 cells in soft agar (Exp 13, 17, 19-26);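 also: soft agar cultures in 24-well plates with a cell density gradient in the top layer, compounds applied from DMSO stocks, clonal growth scored in sparse versus dense areas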
Conditions: Exp 23

Structure (SMILES): CCCCC(O)(C(=O)Nc1ccccc1)C(=O)Nc1ccc(O)cc1 (stereo not shown) [#2, 2-Butyl-2-hydroxy-N-(4-hydroxy-phenyl)-N′-phenyl malonamide]
- Concentration for an effect similar to 4-OH-OPB, relative to 4-OH-OPB: at least 66 times
